PubChem BioAssay AID504784 – Drosophila RNAi Screening Center – 2011

Purpose: 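Genome-wide knock-down for genes giving too much or too little stored lipid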 (primary screen)
Cell system: Drosophila Kc167 embryonic cells
Knock-down reagent: long dsRNA against Drosophila genes, about 250 ng dsRNA per well
Timing: 4 days
Treatment: cells fed 400 µM oleic acid bound to BSA
Read-out: 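Microscope images give a droplet-to-nucleus area ratio, taken as log and converted to a screen-wide B-score; higher values mean greater lipid storage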
Reading the numbers: droplet/nuclear area B-score: higher = more stored lipid (overstorage)
In all, the deposit lists about 17,000 reagents; shown is a random part of those that have a named target and a result. 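Each column is one replicate's B-score; the combined score over replicates was not deposited, so single values may mislead.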 A plus sign joins genes that one reagent is predicted to hit. Not all columns of the deposit are shown. Reagent sequences are not shown.

no.	predicted target	PubChem SID	droplet/nuclear area B-score, replicate 1	droplet/nuclear area B-score, replicate 2
1	CG9643	SID104180514	-1.02	-0.401
2	CG32376	SID104202124	1.33	-0.501
3	CG17049 (retired record)	SID104186442	0.0536	-0.171
4	regucalcin	SID104200158	2.25	0.481
5	SdhAL	SID104190331	0.397	1.72
6	CG2656	SID104192376	-0.579	0.0147
7	ND-B15	SID104185991	1.97	0.973
8	CG3650	SID104184193	-0.932	-0.157
9	CG11779	SID104194176	-0.389	0.586
10	onecut	SID104196967	-1.46	0.685
11	Mlc2	SID104196533	0.0935	1.7
12	TkR99D	SID104196673	-0.746	-0.164
13	CG18788	SID104182489	1.9	0.554
14	CG34248	SID104189218	-0.0334	-2.48
15	CG3149	SID104197524	-0.587	0
16	l(3)73Ah + CG32163	SID104201518	4.11	-0.791
17	Drp1	SID104180366	1.29	-1.98
18	CG4907	SID104195465	-0.614	-1.23

The list goes on, starting with the last 3 of the part before.
no.	predicted target	PubChem SID	droplet/nuclear area B-score, replicate 1	droplet/nuclear area B-score, replicate 2
16	l(3)73Ah + CG32163	SID104201518	4.11	-0.791
17	Drp1	SID104180366	1.29	-1.98
18	CG4907	SID104195465	-0.614	-1.23
19	x16	SID104180752	-0.293	0.966
20	x16	SID104183430	-0.891	-1.11
21	Nacalpha	SID104187269	3.36	2.67
22	Use1	SID104189972	1.31	2.05
23	whe	SID104200329	-0.195	-0.836
24	Ir48c	SID104185946	0.922	1.81
25	CG14316	SID104194587	1.54	1.6
26	CG8837	SID104180503	-0.463	1.32
27	CG32987	SID104201856	-1.8	0.48
28	awd	SID104196698	1.47	-0.0273
29	EDTP	SID104187201	0.106	0.0326
30	Klf15	SID104197534	-0.162	0.00505
31	CG30427	SID104183806	-0.17	0.638
32	CG30427	SID104184103	-0.000754	1.76
33	CG30427	SID104184115	0.219	-1.68
34	CG15570	SID104197850	0.594	0.402
